According to the supplement of paper PMC4604168 (melanoma cell lines):
Some of the results follow. Many values rest on one well or one pass, so single values are uncertain.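 Imaging used 1,536-well plates; nuclei positive for cleaved PARP by antibody were divided by total DNA-stained nuclei to yield the apoptosis fraction. Doses for screening kept most cells viable, and cell lines differ markedly in resting and induced cleaved-PARP levels.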

Experiments:
Assay in all cases: cleaved PARP positive nuclei fraction relative to DMSO control; melanoma cells; higher = more apoptosis
Conditions in all cases: library dose: low library concentration; 72 h
[1] = test system: CBRC034 (line from a melanoma biopsy)
[2] = test system: COLO792
[3] = test system: COLO800
[4] = test system: COLO829
[5] = test system: G361
[6] = test system: IPC-298
[7] = test system: IST-MEL1
[8] = test system: LB2518-MEL
[9] = test system: LOXIMVI
[10] = test system: MEL-HO

| SMILES | cleaved PARP positive nuclei fraction [1] [%] | cleaved PARP positive nuclei fraction [2] [%] | cleaved PARP positive nuclei fraction [3] [%] | cleaved PARP positive nuclei fraction [4] [%] | cleaved PARP positive nuclei fraction [5] [%] | cleaved PARP positive nuclei fraction [6] [%] | cleaved PARP positive nuclei fraction [7] [%] | cleaved PARP positive nuclei fraction [8] [%] | cleaved PARP positive nuclei fraction [9] [%] | cleaved PARP positive nuclei fraction [10] [%] |
| --- | --- | --- | --- | --- | --- | --- | --- | --- | --- | --- |
| C[C@@H](N)c1ccc(C(=O)Nc2ccnc3[nH]ccc23)cc1 + N.N.[Cl][Pt][Cl] [cisplatin] (first compound 0.4 µM, partner dose 1.6 µM) | 67.1 | 192 | 108 | 86.8 | 184 | 164 | 87.7 | 106 | 112 | 182 |
| N.N.[Cl][Pt][Cl] [cisplatin] + Clc1ccc(Nc2nnc(Cc3ccncc3)c3ccccc23)cc1 [vatalanib] (first compound 1.6 µM, partner dose 2 µM) | 146 | 116 | 66.3 | 78.7 | 97.7 | 123 | 62.4 | 94.3 | 194 | 209 |
| C#Cc1cccc(Nc2ncnc3cc(OCCOC)c(OCCOC)cc23)c1 [erlotinib] + C[As](C)SC[C@H](NC(=O)CC[C@H](N)C(=O)O)C(=O)NCC(=O)O [Darinaparsin] (first compound 0.8 µM, partner dose 0.4 µM) | 63.5 | 250 | 165 | 107 | 113 | 94.4 | 90.5 | 128 | 99.6 | 72.2 |
| O=C(O)[C@@H]1[O][Sb](=[O])([O][Sb]2(=[O])[O][C@H]([C@H](O)CO)[C@H](O)[C@H](C(=O)O)[O]2)[O][C@H]([C@H](O)CO)[C@@H]1O (stereo not given in full) [stibogluconate] + C[As](C)SC[C@H](NC(=O)CC[C@H](N)C(=O)O)C(=O)NCC(=O)O [Darinaparsin] (first compound 2 µM, partner dose 0.4 µM) | 143 | 79.1 | 111 | 210 | 71 | 79.1 | 77.9 | 183 | 143 | 124 |
| N.N.[Cl][Pt][Cl] [cisplatin] + COCC[n+]1c2c(n(Cc3cnccn3)c1C)C(=O)c1ccccc1C2=O [YM155] (first compound 1.6 µM, partner dose 0.0004 µM) | 190 | 161 | 159 | 59.5 | 51.2 | 43.5 | 128 | 206 | 177 | 179 |
| CC[C@]1(O)C[C@H]2CN(CCc3c([nH]c4ccccc34)[C@@](C(=O)OC)(c3cc4c(cc3OC)N(C=O)[C@H]3[C@@](O)(C(=O)OC)[C@H](OC(C)=O)[C@]5(CC)C=CCN6CC[C@]43[C@@H]65)C2)C1 [vincristine] + C[C@]12O[C@H](C[C@]1(O)CO)n1c3ccccc3c3c4c(c5c6ccccc6n2c5c31)CNC4=O [Lestaurtinib] (first compound 0.0001 µM, partner dose 0.004 µM) | 93.1 | 177 | 115 | 109 | 149 | 43.7 | 258 | 113 | 293 | 53.2 |
| CC[C@]1(O)C[C@H]2CN(CCc3c([nH]c4ccccc34)[C@@](C(=O)OC)(c3cc4c(cc3OC)N(C=O)[C@H]3[C@@](O)(C(=O)OC)[C@H](OC(C)=O)[C@]5(CC)C=CCN6CC[C@]43[C@@H]65)C2)C1 [vincristine] + N.N.[Cl][Pt][Cl] [cisplatin] (first compound 0.0001 µM, partner dose 1.6 µM) | 92.6 | 78.9 | 169 | 123 | 68.8 | 84 | 259 | 110 | 200 | 153 |
| CCCCCCCCCCCCCCCCCCOP(=O)([O-])OC1CC[N+](C)(C)CC1 [Perifosine] + N.N.[Cl][Pt][Cl] [cisplatin] (first compound 0.4 µM, partner dose 1.6 µM) | 96.5 | 83 | 110 | 55.1 | 91.4 | 44.6 | 63 | 74.7 | 52.8 | 96.3 |
| C[C@]1(O)C[C@@H](c2nc(-c3ccc4ccc(-c5ccccc5)nc4c3)c3c(N)nccn32)C1 + N.N.[Cl][Pt][Cl] [cisplatin] (first compound 0.4 µM, partner dose 1.6 µM) | 156 | 80.9 | 138 | 114 | 113 | 122 | 59.3 | 118 | 87.4 | 188 |
| N.N.[Cl][Pt][Cl] [cisplatin] + CS(=O)(=O)CCNCc1ccc(-c2ccc3ncnc(Nc4ccc(OCc5cccc(F)c5)c(Cl)c4)c3c2)o1 [lapatinib] (first compound 1.6 µM, partner dose 0.8 µM) | 51.5 | 239 | 68.5 | 83.3 | 194 | 79.1 | 132 | 49.7 | 98.8 | 34.3 |
| NC(=O)c1ccc(N(C(N)=O)c2c(F)cccc2F)nc1-c1ccc(F)cc1F + C[C@]12O[C@H](C[C@]1(O)CO)n1c3ccccc3c3c4c(c5c6ccccc6n2c5c31)CNC4=O [Lestaurtinib] (first compound 0.4 µM, partner dose 0.004 µM) | 27.7 | 175 | 78.6 | 36.3 | 166 | 205 | 66.3 | 249 | 45.8 | 121 |
| O=C(Nc1cc(C(F)(F)F)cc(C(F)(F)F)c1)c1cc(Cl)ccc1O + Cn1cc(C2=C(c3cn(C4CCN(Cc5ccccn5)CC4)c4ccccc34)C(=O)NC2=O)c2ccccc21 [Enzastaurin] (first compound 0.016 µM, partner dose 0.8 µM) | 54.2 | 120 | 39.5 | 26.5 | 115 | 41.8 | 185 | 132 | 147 | 115 |
| Cc1cc(Nc2cc(N3CCN(C)CC3)nc(Sc3ccc(NC(=O)C4CC4)cc3)n2)n[nH]1 [Tozasertib] + C[As](C)SC[C@H](NC(=O)CC[C@H](N)C(=O)O)C(=O)NCC(=O)O [Darinaparsin] (first compound 0.006 µM, partner dose 0.4 µM) | 59.2 | 86.9 | 144 | 130 | 64.3 | 90.8 | 142 | 123 | 142 | 35.2 |
| Cn1cc(C2=C(c3cn(C4CCN(Cc5ccccn5)CC4)c4ccccc34)C(=O)NC2=O)c2ccccc21 [Enzastaurin] + CO[C@H]1C[C@@H]2CC[C@@H](C)[C@@](O)(O2)C(=O)C(=O)N2CCCC[C@H]2C(=O)O[C@H]([C@H](C)C[C@@H]2CC[C@@H](OCCO)[C@H](OC)C2)CC(=O)[C@H](C)/C=C(\C)[C@@H](O)[C@@H](OC)C(=O)[C@H](C)C[C@H](C)/C=C/C=C/C=C/1C [everolimus] (first compound 0.8 µM, partner dose 0.02 µM) | 60 | 190 | 72.8 | 191 | 73.5 | 183 | 147 | 57.1 | 125 | 57.3 |
| Cc1cc(Nc2cc(N3CCN(C)CC3)nc(/C=C/c3ccccc3)n2)n[nH]1 + C[As](C)SC[C@H](NC(=O)CC[C@H](N)C(=O)O)C(=O)NCC(=O)O [Darinaparsin] (first compound 0.04 µM, partner dose 0.4 µM) | 77 | 88.8 | 44.6 | 68 | 76.3 | 61.6 | 62.4 | 250 | 66.2 | 109 |
| N.N.[Cl][Pt][Cl] [cisplatin] + CO[C@H]1C[C@@H]2CC[C@@H](C)[C@@](O)(O2)C(=O)C(=O)N2CCCC[C@H]2C(=O)O[C@H]([C@H](C)C[C@@H]2CC[C@@H](OCCO)[C@H](OC)C2)CC(=O)[C@H](C)/C=C(\C)[C@@H](O)[C@@H](OC)C(=O)[C@H](C)C[C@H](C)/C=C/C=C/C=C/1C [everolimus] (first compound 1.6 µM, partner dose 0.02 µM) | 36.1 | 178 | 89.7 | 92.5 | 191 | 322 | 87.2 | 137 | 60.9 | 193 |
| COc1ccc(C2=N[C@@H](c3ccc(Cl)cc3)[C@@H](c3ccc(Cl)cc3)N2C(=O)N2CCNC(=O)C2)c(OC(C)C)c1 [Nutlin-3] + N.N.[Cl][Pt][Cl] [cisplatin] (first compound 0.1 µM, partner dose 1.6 µM) | 72.3 | 123 | 141 | 124 | 103 | 91.2 | 135 | 114 | 220 | 169 |
| N.N.[Cl][Pt][Cl] [cisplatin] + Cn1c(Nc2ccc(C(F)(F)F)cc2)nc2cc(Oc3ccnc(-c4ncc(C(F)(F)F)[nH]4)c3)ccc21 [CHIR265] (first compound 1.6 µM, partner dose 0.08 µM) | 231 | 83.1 | 95.3 | 187 | 127 | 208 | 60.6 | 52.8 | 78.2 | 78.1 |
| CCCCCCCCCCCCCCCCCCOP(=O)([O-])OC1CC[N+](C)(C)CC1 [Perifosine] + C[C@]12O[C@H](C[C@]1(O)CO)n1c3ccccc3c3c4c(c5c6ccccc6n2c5c31)CNC4=O [Lestaurtinib] (first compound 0.4 µM, partner dose 0.004 µM) | 102 | 96 | 77.9 | 54.8 | 135 | 177 | 45.3 | 228 | 104 | 164 |
| OCc1c[nH]c2ccccc12 [Indole-3-carbinol] + C[As](C)SC[C@H](NC(=O)CC[C@H](N)C(=O)O)C(=O)NCC(=O)O [Darinaparsin] (first compound 0.8 µM, partner dose 0.4 µM) | 31 | 72.3 | 75.2 | 120 | 220 | 181 | 78.2 | 111 | 43.5 | 45.9 |

Full records, quoted from the list. Order of values: cleaved PARP positive nuclei fraction [1] [%]	cleaved PARP positive nuclei fraction [2] [%]	cleaved PARP positive nuclei fraction [3] [%]	cleaved PARP positive nuclei fraction [4] [%]	cleaved PARP positive nuclei fraction [5] [%]	cleaved PARP positive nuclei fraction [6] [%]	cleaved PARP positive nuclei fraction [7] [%]	cleaved PARP positive nuclei fraction [8] [%]	cleaved PARP positive nuclei fraction [9] [%]	cleaved PARP positive nuclei fraction [10] [%]
N.N.[Cl][Pt][Cl] [cisplatin] + COCC[n+]1c2c(n(Cc3cnccn3)c1C)C(=O)c1ccccc1C2=O [YM155] (first compound 1.6 µM, partner dose 0.0004 µM) reads 190	161	159	59.5	51.2	43.5	128	206	177	179
CC[C@]1(O)C[C@H]2CN(CCc3c([nH]c4ccccc34)[C@@](C(=O)OC)(c3cc4c(cc3OC)N(C=O)[C@H]3[C@@](O)(C(=O)OC)[C@H](OC(C)=O)[C@]5(CC)C=CCN6CC[C@]43[C@@H]65)C2)C1 [vincristine] + C[C@]12O[C@H](C[C@]1(O)CO)n1c3ccccc3c3c4c(c5c6ccccc6n2c5c31)CNC4=O [Lestaurtinib] (first compound 0.0001 µM, partner dose 0.004 µM) reads 93.1	177	115	109	149	43.7	258	113	293	53.2
